PMC11993459
Results are given in words; binding and its absence hold for the method and conditions named. In cells and extracts the contact can be indirect. Some entries that bind do so weakly or less than the wild type.

Chains of the proteins cited; added tags and fusions are not shown.
UniProt Q96AC1: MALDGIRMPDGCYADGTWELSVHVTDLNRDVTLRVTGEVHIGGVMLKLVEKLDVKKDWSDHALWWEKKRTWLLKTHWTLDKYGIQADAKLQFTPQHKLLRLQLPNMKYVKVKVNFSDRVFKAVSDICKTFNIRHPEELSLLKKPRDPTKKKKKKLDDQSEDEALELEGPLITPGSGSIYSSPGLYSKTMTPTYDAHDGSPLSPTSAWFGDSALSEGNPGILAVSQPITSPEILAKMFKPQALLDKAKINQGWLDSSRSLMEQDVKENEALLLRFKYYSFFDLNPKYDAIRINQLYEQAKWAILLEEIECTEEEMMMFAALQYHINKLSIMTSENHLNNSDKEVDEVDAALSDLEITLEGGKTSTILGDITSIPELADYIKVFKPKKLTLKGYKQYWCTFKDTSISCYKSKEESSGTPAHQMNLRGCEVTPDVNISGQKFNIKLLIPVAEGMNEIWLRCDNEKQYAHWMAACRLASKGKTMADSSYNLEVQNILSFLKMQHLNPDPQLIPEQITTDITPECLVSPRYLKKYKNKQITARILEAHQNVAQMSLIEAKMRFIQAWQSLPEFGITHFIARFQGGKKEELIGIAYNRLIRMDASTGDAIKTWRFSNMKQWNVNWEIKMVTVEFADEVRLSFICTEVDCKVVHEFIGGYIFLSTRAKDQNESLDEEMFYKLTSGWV
UniProt P48431: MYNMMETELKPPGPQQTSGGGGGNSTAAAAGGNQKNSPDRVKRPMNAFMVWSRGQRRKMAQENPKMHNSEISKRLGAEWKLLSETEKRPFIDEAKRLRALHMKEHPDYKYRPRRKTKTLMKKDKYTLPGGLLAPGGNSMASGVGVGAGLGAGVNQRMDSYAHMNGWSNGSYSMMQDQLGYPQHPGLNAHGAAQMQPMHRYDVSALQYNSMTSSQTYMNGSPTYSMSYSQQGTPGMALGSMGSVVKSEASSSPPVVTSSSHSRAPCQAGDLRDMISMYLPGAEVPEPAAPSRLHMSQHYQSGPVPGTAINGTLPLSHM

Molecular target: Fermitin family homolog 2 (FERMT2) (human (endogenous in HGC-27)) (UniProt Q96AC1)
Test: co-IP; whole-cell protein of HGC-27 cells extracted with RIPA buffer, incubated overnight at 4 °C with Protein A + G magnetic beads and the corresponding antibody; co-precipitated proteins analysed by Western blotting

In the case of “SRY (sex determining region Y)-box 2 (SOX2) (from UniProt P48431 1-317)”, the binding is reported as “binds”.
